No constants are given. Whether binding was seen depends on the method and setting. In cells and extracts the contact can be indirect. Some results given as binding are weak or reduced against the parent protein; the word gives no strength. Sequences can lack the tags named with a protein.
Target: T1, suppressor of fused homolog (SUFU) (human (endogenous in 5637 and T24)) (UniProt Q9UMX1)
T1 sequence: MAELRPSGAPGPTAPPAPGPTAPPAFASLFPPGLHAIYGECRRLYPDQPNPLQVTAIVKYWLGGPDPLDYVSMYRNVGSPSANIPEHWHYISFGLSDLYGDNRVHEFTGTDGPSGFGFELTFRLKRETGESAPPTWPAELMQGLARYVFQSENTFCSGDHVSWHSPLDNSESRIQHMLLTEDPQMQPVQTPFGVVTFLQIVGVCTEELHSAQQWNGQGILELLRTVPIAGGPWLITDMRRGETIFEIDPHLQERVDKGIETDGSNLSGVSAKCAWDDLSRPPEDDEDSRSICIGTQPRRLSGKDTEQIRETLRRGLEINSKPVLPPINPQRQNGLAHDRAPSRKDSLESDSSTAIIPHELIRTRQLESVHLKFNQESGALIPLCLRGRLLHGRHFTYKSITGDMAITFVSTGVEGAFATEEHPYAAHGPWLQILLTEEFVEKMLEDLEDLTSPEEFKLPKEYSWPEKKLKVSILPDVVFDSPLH
Assay: co-IP; immunoprecipitation of endogenous SUFU from lysates of 5637 and T24 cells (Thermo Scientific co-immunoprecipitation kit), western blot of Gli1 and Gli2; nonspecific rabbit IgG as negative control; also from cells transfected with siROC1 or pROC1

Protein sequences, listed by entry. Tags and fused reporters are not part of them.
UniProt P08151: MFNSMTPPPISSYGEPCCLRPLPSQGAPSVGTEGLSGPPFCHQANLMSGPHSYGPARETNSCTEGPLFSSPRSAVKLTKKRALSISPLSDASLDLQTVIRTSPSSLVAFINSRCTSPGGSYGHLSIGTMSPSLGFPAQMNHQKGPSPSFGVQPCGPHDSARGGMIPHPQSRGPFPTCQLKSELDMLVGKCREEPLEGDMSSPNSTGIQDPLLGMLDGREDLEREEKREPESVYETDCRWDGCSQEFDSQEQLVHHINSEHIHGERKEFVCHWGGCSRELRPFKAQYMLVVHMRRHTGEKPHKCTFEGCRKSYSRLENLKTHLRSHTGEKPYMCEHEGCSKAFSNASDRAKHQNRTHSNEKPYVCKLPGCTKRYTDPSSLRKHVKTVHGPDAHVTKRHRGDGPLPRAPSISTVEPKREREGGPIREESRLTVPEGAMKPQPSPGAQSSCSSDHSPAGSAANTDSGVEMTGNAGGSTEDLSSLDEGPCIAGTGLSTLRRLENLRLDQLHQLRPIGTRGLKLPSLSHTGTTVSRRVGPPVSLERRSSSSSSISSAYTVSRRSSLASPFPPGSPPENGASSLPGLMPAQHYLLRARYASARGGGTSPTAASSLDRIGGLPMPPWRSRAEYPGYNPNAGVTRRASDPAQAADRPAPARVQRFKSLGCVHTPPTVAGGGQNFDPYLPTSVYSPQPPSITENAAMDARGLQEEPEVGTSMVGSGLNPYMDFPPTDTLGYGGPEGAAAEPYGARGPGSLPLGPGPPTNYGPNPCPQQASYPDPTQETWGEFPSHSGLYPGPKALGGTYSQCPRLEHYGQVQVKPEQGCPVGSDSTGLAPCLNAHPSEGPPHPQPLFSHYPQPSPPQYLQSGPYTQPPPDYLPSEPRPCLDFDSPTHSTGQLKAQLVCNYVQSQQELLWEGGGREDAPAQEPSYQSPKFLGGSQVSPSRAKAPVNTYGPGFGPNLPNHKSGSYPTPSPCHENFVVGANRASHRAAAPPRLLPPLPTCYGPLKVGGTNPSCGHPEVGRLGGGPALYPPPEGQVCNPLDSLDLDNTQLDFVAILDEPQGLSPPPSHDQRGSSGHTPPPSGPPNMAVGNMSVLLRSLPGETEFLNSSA
UniProt P10070: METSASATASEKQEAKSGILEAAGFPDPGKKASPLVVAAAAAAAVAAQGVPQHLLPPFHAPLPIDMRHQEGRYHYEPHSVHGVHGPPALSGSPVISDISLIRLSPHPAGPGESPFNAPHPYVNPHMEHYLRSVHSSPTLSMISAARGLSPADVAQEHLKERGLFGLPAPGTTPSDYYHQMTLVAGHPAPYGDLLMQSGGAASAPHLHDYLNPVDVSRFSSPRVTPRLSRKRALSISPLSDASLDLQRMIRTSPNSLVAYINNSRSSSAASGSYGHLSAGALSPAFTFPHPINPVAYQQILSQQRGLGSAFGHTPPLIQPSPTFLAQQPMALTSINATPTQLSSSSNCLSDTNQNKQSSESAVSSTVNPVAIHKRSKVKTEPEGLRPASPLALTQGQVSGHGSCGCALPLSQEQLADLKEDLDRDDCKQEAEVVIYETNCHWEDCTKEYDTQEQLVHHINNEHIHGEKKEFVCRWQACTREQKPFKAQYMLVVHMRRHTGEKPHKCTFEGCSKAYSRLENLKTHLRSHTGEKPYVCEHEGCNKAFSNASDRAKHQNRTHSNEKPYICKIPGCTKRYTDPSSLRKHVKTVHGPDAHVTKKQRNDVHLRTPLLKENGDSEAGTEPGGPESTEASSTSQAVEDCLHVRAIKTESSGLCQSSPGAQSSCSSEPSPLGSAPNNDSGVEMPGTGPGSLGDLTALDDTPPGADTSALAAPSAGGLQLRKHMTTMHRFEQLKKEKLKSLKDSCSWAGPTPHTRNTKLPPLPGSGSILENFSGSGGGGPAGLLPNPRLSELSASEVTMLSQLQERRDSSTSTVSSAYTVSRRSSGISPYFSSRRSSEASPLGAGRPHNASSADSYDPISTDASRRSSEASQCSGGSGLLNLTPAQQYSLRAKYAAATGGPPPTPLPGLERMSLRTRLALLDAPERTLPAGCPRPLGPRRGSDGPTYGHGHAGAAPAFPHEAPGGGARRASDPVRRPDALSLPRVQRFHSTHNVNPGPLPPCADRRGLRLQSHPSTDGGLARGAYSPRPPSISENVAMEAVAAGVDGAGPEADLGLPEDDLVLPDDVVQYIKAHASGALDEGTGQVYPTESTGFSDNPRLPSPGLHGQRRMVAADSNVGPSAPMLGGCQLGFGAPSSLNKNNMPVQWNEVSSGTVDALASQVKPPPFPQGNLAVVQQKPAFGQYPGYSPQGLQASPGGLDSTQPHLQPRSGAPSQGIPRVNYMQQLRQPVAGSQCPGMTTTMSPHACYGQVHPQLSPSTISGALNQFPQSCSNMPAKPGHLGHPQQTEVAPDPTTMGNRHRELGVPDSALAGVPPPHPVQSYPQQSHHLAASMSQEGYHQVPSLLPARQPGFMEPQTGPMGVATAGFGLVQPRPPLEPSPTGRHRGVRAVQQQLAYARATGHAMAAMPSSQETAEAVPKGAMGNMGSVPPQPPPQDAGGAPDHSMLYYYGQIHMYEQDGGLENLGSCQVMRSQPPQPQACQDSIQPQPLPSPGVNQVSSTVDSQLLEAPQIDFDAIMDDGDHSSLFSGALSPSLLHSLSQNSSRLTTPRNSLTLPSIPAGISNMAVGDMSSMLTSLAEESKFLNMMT

Substance: Gli1 (from UniProt P08151 1-1106)
- binding: binds

Substance: Gli2 (from UniProt P10070 1-1586)
- binding: binds

Reference: PMC7836478
